Results of single-concentration screens

The values are deposited in ChEMBL (CHEMBL3988442, “University of Dundee, Small-Polar-MMV Screening Library” (2021)).

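Whole-cell growth test on Mycobacterium tuberculosis, read after 4 days in a medium based on cholesterol and the lipid DPPC; the read-out is not stated. Compounds at 500 µM. Higher reads as more growth inhibition (inferred: compounds with an IC50 in retests scored well above the rest). About 18,000 compounds were tested under these conditions; 5% (about 900) showed 50% or more at least once.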

Results are given as percent effect.
The controls that fix the scale are not given in the record; negative values are as filed.
The compounds are a random part of those screened.

structure | effect
CC(C)C(O)CNC(=O)CC(C)(C)C (stereo unspecified) | 13.17%
O=C1CN(CC(=O)Nc2c(Cl)cccc2Cl)CCN1 | -25.59%
c1cc(N2CCCC2)ncc1CN1CCCSCC1 | -7.742%
O=C(CC1OCCc2ccccc21)N1CCSC1 (stereo unspecified) | 22.72%
COc1ncccc1CNS(=O)(=O)c1cccc(Cl)c1 | 53.16%
Cc1cnc(C(=O)N(Cc2cnn(C)c2)C2CC2)cn1 | 6.588%
CCN(C1CCN(c2cccc(C)n2)CC1)S(C)(=O)=O | 13.56%
CCNC(=O)NC(c1ccc2c(c1)OCCO2)C(C)C (stereo unspecified) | 28.71%
Fc1cccnc1OC1CCNCC1 | -5.268%
CC(=O)Nc1nc(CC(=O)NCc2ccco2)cs1 | 4.303%
NC(=O)C1CCCN(CCc2ccccc2)C1 (stereo unspecified) | 43.54%
CS(=O)(=O)N1CCSc2ccc(Cl)cc21 | -18.24%
COCC(C)Nc1cccc(CS(C)(=O)=O)c1 (stereo unspecified) | 0.4683%
CCS(=O)(=O)N1CCC(NCc2cnn(C)c2)CC1 | 0.4004%
CN(C)CC(=O)Nc1ccc(S(N)(=O)=O)cc1 | -11.87%
COCC(O)CN(C)C(=O)Cc1cc(Cl)ccc1Cl (stereo unspecified) | 30.59%
CCOC(=O)c1ccc(CN2CCOCC2)cn1 | 56.84%
Cn1nc(C2CCCNC2)n(Cc2ccccc2)c1=O (stereo unspecified) | 1.923%
COc1ccc(CN2CC(N3CCOCC3)C2)cn1 | -1.814%
NCCN1CCN(c2cccc(C(F)(F)F)c2)CC1 | 86.2%
c1nc(CN2CCCNCC2)cs1 | -24.07%
Cc1cncc(CNC(=O)N2CCSCCC2C)c1 (stereo unspecified) | -13.72%
CCC(NS(=O)(=O)c1cc(C)nn1CC)[C@H]1C[C@H](O)C1 (stereo partly specified) | 4.809%
NCc1ccc(C(=O)NCC(N)=O)cc1 | 7.491%
OC(CNc1ncnc2ncccc12)C1CCCC1 (stereo unspecified) | -5.823%
CC1CN(C)CCN1C(=O)NCc1cccs1 (stereo unspecified) | 10.18%
NCCc1nnc(N)s1 | -5.316%
O=C(CCc1cccnc1)N1CC(N2CCOCC2)C1 | 3.078%
Cc1c(CN2CC3(CCNCC3)OC2=O)cnn1C | 3.331%
Cc1nc(C(C)NC(=O)c2ccc3cc[nH]c3c2)n[nH]1 (stereo unspecified) | 15.51%
CC(=O)NCc1ccc(C(=O)Nc2ccccn2)cc1 | -5.993%
COC(=O)c1cc(N2C(=O)C=CC2=O)ccc1Cl | -4.194%
Cc1cc(-n2cccn2)ccc1CO | -9.828%
COc1ccc(CCN)cc1S(N)(=O)=O | 8.842%
Cc1ccnc(CCO)n1 | 5.075%
CC(NC(=O)C1CCNCC1)c1cccc(F)c1 (stereo unspecified) | -1.933%
O=C(CN1CCn2ccnc2C1)NCc1ccco1 | 2.302%
CC1CCCN(CC(=O)NC2CC2)C1 (stereo unspecified) | 1.085%
CC(C)OCCS(=O)(=O)N(C)Cc1ccco1 | 72.25%
CNCc1cccc(OC)n1 | 2.683%
CCn1ccnc1C1CCN(C(=O)CNC)CC1 | -1.588%
Nc1ccc(CN2CCCCC2)cn1 | -1.915%
CCSc1ccccc1NC(=O)NCCNC(C)=O | 21.81%
OCCn1ncc2c1CN(CCc1ccccn1)C2 | -39.8%
C=C(Cl)CNC(=O)CNC(=O)Cc1ccc(O)cc1 | -3.831%
CN(C)C(=O)CNC(=O)c1sccc1Br | 38%
CC(N)CC(=O)Nc1cccc(N2CCCC2)c1 (stereo unspecified) | 25.7%
CN(C)c1ncc(CN2CCCCC2CO)cn1 (stereo unspecified) | 1.424%
O=C(COc1ccccc1Cl)NCC(=O)c1ccco1 | -1.693%
CN(C)C(=O)Cn1c(C(F)(F)F)nc2ccccc21 | -5.554%
COc1cc(CN2CCCC2CO)cc2c1OCO2 (stereo unspecified) | 15.14%
CC1(C)C(=O)NCCN1C(=O)C1CCC1 | -14.97%
N#Cc1ccc(NC(=O)CCN2CCC[C@H]2CO)cc1 | -1.09%
CN(Cc1ccc(Cl)cc1)C(=O)C1CCNC1 (stereo unspecified) | 21.17%
CCc1ccnc(C(=O)NC(C)(CO)CO)c1 | -14.53%
CCSCc1ccc(C(=O)NCCNC(C)=O)cc1 | -5.954%
NC1CCN(CC2CC2)CC1 | -2.09%
CC1(C)C(C(=O)N2CCC(N)C2)C1(C)C (stereo unspecified) | -12.65%
CC1CN(c2nccc(N(C)C)n2)CCS1(=O)=O (stereo unspecified) | 11.64%
CCC(N)c1ccccc1OC (stereo unspecified) | 10.33%
CC(=O)c1c[nH]c(C(=O)Nc2nnc(C)s2)c1 | -10.79%
c1ccc(CNC2CCCNCC2)cc1 (stereo unspecified) | 12.87%
CCNC(=O)Cc1nnc(-c2cccc(F)c2)o1 | -0.2892%
CC(NC(=O)Nc1cccnn1)c1ccncc1 (stereo unspecified) | 11.38%
COc1ccc(C2NC(=O)c3cccnc3N2)cc1F (stereo unspecified) | -7.47%
CS(=O)(=O)CC1(CNCc2cccc(O)c2)CC1 | 10.66%
CCCC(O)(CCC)CNC(=O)c1cccnc1 | 8.153%
O=C(NC1CCCOC1)c1ccc2c(c1)OCCO2 (stereo unspecified) | 6.871%
Cn1c(SCCN2CCOCC2)nc2ccsc2c1=O | 12.27%
COCC1CCN(Cc2ccc(NC(C)=O)cc2)C1 (stereo unspecified) | -18.96%
NCC(NS(=O)(=O)CCc1cccs1)C1CC1 (stereo unspecified) | 29.51%

Some entries from above, unchanged:

structure	effect
CCNC(=O)NC(c1ccc2c(c1)OCCO2)C(C)C (stereo unspecified)	28.71%
CC(NC(=O)C1CCNCC1)c1cccc(F)c1 (stereo unspecified)	-1.933%
CCC(N)c1ccccc1OC (stereo unspecified)	10.33%
N#Cc1ccc(NC(=O)CCN2CCC[C@H]2CO)cc1	-1.09%
OC(CNc1ncnc2ncccc12)C1CCCC1 (stereo unspecified)	-5.823%
O=C(CCc1cccnc1)N1CC(N2CCOCC2)C1	3.078%